PubChem BioAssay AID743454 | Peter MacCallum Cancer Centre – 2014
In all, the deposit lists about 18,000 reagents; below is an unselected part. Of all reagents, 450 (2.5%) are marked active. 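Single biological run; no consistent viability z cut-off exists, so the class columns, not z-scores, define the calls.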

- Aim: 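Search for knock-downs that restore vorinostat killing in resistant colon cancer cells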 (primary screen)
- Cells: human HCT116-VR colon cancer cells, selected for vorinostat resistance
- Knock-down reagent: siRNA pool against human genes, 40 nM siRNA pool
- Timing: vorinostat for 24 h, read-out about 72 h after transfection
- Conditions: vorinostat at 2.5 µM final
- Read-out: 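Cell viability by CellTiter-Fluor and caspase 3/7 activity by luminescence, each scaled to mock wells per plate, duplicates averaged, then robust z-scored over all plates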
- Reading the numbers: viability robust z-score: higher = more viable cells than screen typical; caspase robust z-score: higher = more caspase 3/7 activity than screen typical
- Hit rule: 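a knock-down is a hit when classed RV1 or RV2 for lowered viability, or CA1 or CA2 for caspase activation; those lethal without drug were dropped; hits were retested singly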

For PPP2R3C, the entry reads viability hit class no change; caspase hit class no change; viability robust z-score -0.16; caspase robust z-score -0.98; inactive.
With knock-down of EGFL8, the screen gave viability hit class no change; caspase hit class no change; viability robust z-score 0.84; caspase robust z-score -0.59; inactive.
JPH1 scored viability hit class no change; caspase hit class no change; viability robust z-score -0.83; caspase robust z-score 0.92; inactive.
For CAV3, the entry reads viability hit class no change; caspase hit class no change; viability robust z-score 0.24; caspase robust z-score 0.14; inactive.
Against TSPAN12, the values are viability hit class no change; caspase hit class no change; viability robust z-score 1.3; caspase robust z-score 1.7; inactive.
Against PROSER2 the deposit lists viability hit class no change; caspase hit class no change; viability robust z-score 0.19; caspase robust z-score -1.04; inactive.
Against DENND3, the entry reads viability hit class no change; caspase hit class no change; viability robust z-score -0.92; caspase robust z-score 0.58; inactive.
CD163 scored viability hit class no change; caspase hit class no change; viability robust z-score -0.92; caspase robust z-score 1.77; inactive.
PHGDH gave viability hit class no change; caspase hit class no change; viability robust z-score 1.7; caspase robust z-score 0.91; inactive.
Depletion of CALM3 resulted in: viability hit class no change; caspase hit class CA2 (caspase activation); viability robust z-score -1.4; caspase robust z-score 6.03; active.
After knock-down of GADD45G, the record shows viability hit class no change; caspase hit class no change; viability robust z-score -0.08; caspase robust z-score -0.9; inactive.
Depletion of ADGRA2 came out at: viability hit class no change; caspase hit class no change; viability robust z-score 0.32; caspase robust z-score -0.5; inactive.
Silencing of MPND gave: viability hit class no change; caspase hit class no change; viability robust z-score -0.99; caspase robust z-score 0.56; inactive.
Silencing of FBXL9P gave: viability hit class no change; caspase hit class no change; viability robust z-score 0.33; caspase robust z-score -0.48; inactive.

2 of these entries, set out differently.
{"target": "PPP2R3C", "viability hit class": "no change", "caspase hit class": "no change", "viability robust z-score": -0.16, "caspase robust z-score": -0.98, "outcome": "inactive"}
{"target": "EGFL8", "viability hit class": "no change", "caspase hit class": "no change", "viability robust z-score": 0.84, "caspase robust z-score": -0.59, "outcome": "inactive"}
